Test results reported in PubChem BioAssay AID504834 (National Center for Advancing Translational Sciences (NCATS), 2011).
Screen size: about 320,000 compounds; about 22,000 (6.9%) were called active. Inconclusive results, whose numbers are uncertain, are shown with a selection of clear calls. Calls come from the whole dose curve; as a rule, active = well fitted inhibition curve with a large enough effect; inconclusive = small, poorly fitted or top-dose-only effect, or another doubt; inactive = no such curve, though single readings can be large or run the other way. Potencies of inconclusive entries are doubtful fits and often do not repeat.

Test: Primary qHTS for delayed death inhibitors of the malarial parasite plastid, 96 hour incubation
Settings: P. falciparum luciferase reporter growth; series mostly up to 28.7 µM; activity change, negative = inhibition: at the top concentration
Method in brief: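 Two parasite generations (96 h, 37 C, 5% CO2) of compound exposure in infected erythrocytes (0.05% parasitemia, 2% hematocrit). Luciferase-reporter P. falciparum; decreased luminescence indicates inhibited growth, aimed at apicoplast-acting delayed death.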
% is set by controls: 0 for no effect and ±100 for the full control effect; potency is the fitted concentration of half-maximal effect.

For `Cc1ccc(S(=O)(=O)NCC(=O)N(c2ccccc2)C(C(=O)NCc2ccccc2)c2ccco2)cc1` (configuration not stated), which Potency is on record?
The Potency was active: 13.1 µM.

With `CC1(C)CC(C)(c2ccc(O)cc2O)N(c2cccc(Cl)c2)C(=S)N1` (configuration not stated) as the compound, how does the Potency read?
Its Potency is inconclusive: 18.5 µM [inhibitor, single point].

Which Potency does the source give for `COc1cccc(N=Cc2ccc(O)cc2O)c1` here?
Its Potency is inconclusive: 11.7 µM [inhibitor, partial curve, poor fit].

For `COC(=O)C1=C(c2cccc(OCc3ccccc3)c2)C[C@@H]2CC[C@H]1N2C(=O)NCc1ccc(Cl)cc1`, which Potency is on record?
The Potency was inconclusive: 7.38 µM [inhibitor, partial curve, poor fit].

For `CCNc1nc(NCc2ccccc2)nc(SCC(=O)Nc2ccccc2)n1`, which Potency is on record?
The Potency was inconclusive: 1.47 µM [inhibitor, full curve].

For `COc1ccc(/C=N/NC(=O)c2ccc(NC(=O)c3cccc([N+](=O)[O-])c3)cc2)c(OC)c1`, which “activity change, negative = inhibition” value is on record?
The value was inactive: 40.3%.

Which Potency does the source give for `CC(C)Cc1nc2oc3c(=O)[nH]cnc3c2c2c1CCCC2` here?
The Potency was inconclusive: 1.47 µM [inhibitor, full curve, poor fit].

Which Potency does the source give for `COc1ccc(NC(C)=O)cc1NC(=O)CSc1nnc(-c2ccccn2)n1C` here?
The Potency was inconclusive: 10.4 µM [inhibitor, partial curve, poor fit].

Which “activity change, negative = inhibition” value does the source give for `Nc1nccnc1C(=O)OCC(=O)C12CC3CC(CC(C3)C1)C2` here?
The value was inactive: 40.4%.

With `CCc1ccc(N2C(=O)C3C4CCC(C4=C(C)C)C3C2=O)cc1` (configuration not stated) as the compound, how does the Potency read?
Its Potency is inconclusive: 14.7 µM [inhibitor, partial curve, poor fit].

Which Potency does the source give for `Cc1ccc(OCC(=O)N2N=C(C(F)(F)F)CC2(O)C(C)(C)C)cc1C` (configuration not stated) here?
The Potency was inconclusive: 2.33 µM [inhibitor, full curve].

Which Potency does the source give for `CCOc1ccc(S(=O)(=O)N(C)c2ccc(OCC(=O)N3c4ccc(C)cc4C4CN(C)CCC43)cc2)cc1` (configuration not stated) here?
The Potency was inconclusive: 0.329 µM [inhibitor, full curve, poor fit].

For `O=C1c2ccccc2C(=O)N1c1n[nH]c(CCc2ccccc2)n1`, which Potency is on record?
The Potency was inconclusive: 4.15 µM [inhibitor, single point].

With `Cc1ccc2c(c1)C1CN(C)CCC1N2C(=O)Nc1cccc(Cl)c1` (configuration not stated) as the compound, how does the Potency read?
Its Potency is inconclusive: 1.47 µM [inhibitor, partial curve].

Which “activity change, negative = inhibition” value does the source give for `CCOC(=O)C1(Cc2cccc(Cl)c2)CCCN(C(=O)c2cc(C)[nH]n2)C1` (configuration not stated) here?
The value was inactive: -6.33%.

For `COc1ccc(C(=O)COC(=O)c2c(-c3ccccc3)noc2C)c(OC)c1`, which “activity change, negative = inhibition” value is on record?
The value was inactive: 6.32%.

For `COc1ccc(/C=N/Nc2ncnc3scc(-c4ccccc4)c23)cc1OC`, which Potency is on record?
The Potency was active: 10.4 µM.

Which “activity change, negative = inhibition” value does the source give for `COc1ccccc1NC(=O)Nc1ccc(NC(=O)c2ccccc2O)cc1` here?
Its value is inactive: 4.83%.

With `CCOc1ccc(CCNC(=O)COC(=O)c2sccc2C)cc1OCC` as the compound, how does the Potency read?
The Potency was inconclusive: 18.5 µM [inhibitor, single point].

With `O=[N+]([O-])c1ccc(Sc2n[nH]c(-c3ccccc3)n2)nc1` as the compound, how does the “activity change, negative = inhibition” value read?
Its value is inactive: 31.1%.

With `COC(=O)Nc1ccc(S(=O)(=O)N2CCC(C(=O)N3CCC(C)CC3)CC2)cc1` as the compound, how does the Potency read?
The Potency was inconclusive: 9.28 µM [inhibitor, partial curve, poor fit].

Which Potency does the source give for `Cc1cc(-c2csc(N)n2)c(C)n1Cc1ccco1` here?
The Potency was inconclusive: 5.86 µM [inhibitor, partial curve, poor fit].

Which “activity change, negative = inhibition” value does the source give for `COc1ccc(NC(=O)c2c(-c3c(Cl)cccc3Cl)noc2C)c(OC)c1` here?
The value was inactive: 29%.

With `N#CC1(c2ccc(NC(=O)c3ccccc3F)cc2)CCCC1` as the compound, how does the Potency read?
The Potency was inconclusive: 10.4 µM [inhibitor, single point].

For `COC(=O)Cc1ccc(NC(=S)N2CCN(c3cc(Cl)ccc3C)CC2)cc1`, which Potency is on record?
Its Potency is inconclusive: 4.65 µM [inhibitor, partial curve, poor fit].

For `Cc1onc(-c2ccccc2Cl)c1C(=O)N1CCN(C/C=C/c2ccccc2)CC1`, which “activity change, negative = inhibition” value is on record?
The value was inactive: -1.26%.

With `CCOc1ccc(C(=S)N2CCOCC2)cc1OC` as the compound, how does the Potency read?
Its Potency is inconclusive: 9.28 µM [inhibitor, partial curve, poor fit].

Which Potency does the source give for `CN1C(=O)C(CC(=O)Nc2ccc(F)cc2)N(CCCc2ccccc2)C1=S` (configuration not stated) here?
Its Potency is inconclusive: 13.1 µM [inhibitor, single point].

Which “activity change, negative = inhibition” value does the source give for `CCOc1ccc(OCCC(=O)OCC(=O)Nc2ccc3c(c2)OCCO3)cc1` here?
Its value is inactive: 11.1%.

For `O=c1c2ccccc2[nH]c(=S)n1-c1ccc2c(c1)OCCO2`, which Potency is on record?
The Potency was inconclusive: 2.94 µM [inhibitor, full curve].

Which Potency does the source give for `Cc1cc(NC(=O)CCCn2nc([N+](=O)[O-])c(Cl)c2C)no1` here?
Its Potency is inconclusive: 20.8 µM [inhibitor, partial curve, poor fit].

Which Potency does the source give for `O=C(c1ccccc1SCc1ccccc1)N1CCCCCC1` here?
The Potency was inconclusive: 10.4 µM [inhibitor, single point].

With `Cc1ccc(-n2c(C)cc(/C=N/NC(=O)c3ccc(CN4CCOCC4)cc3)c2C)cc1` as the compound, how does the Potency read?
Its Potency is inconclusive: 0.104 µM [inhibitor, full curve, poor fit].

With `COc1ccc(Cc2nnc(NC(=O)c3ccccc3C)s2)cc1` as the compound, how does the Potency read?
Its Potency is active: 2.08 µM.

For `COc1ccc(S(=O)(=O)N2CCCN(Cc3cccc(F)c3)CC2)cc1`, which Potency is on record?
The Potency was active: 11.7 µM.

For `CC1Cc2nc(SCC(=O)Nc3ccc(F)cc3)n(C)c(=O)c2S1` (configuration not stated), which Potency is on record?
Its Potency is inconclusive: 18.5 µM [inhibitor, single point].

With `O=C(COn1nnc2ccccc21)N1CCN(Cc2ccccc2)CC1` as the compound, how does the “activity change, negative = inhibition” value read?
Its value is inactive: 36.4%.

Which Potency does the source give for `O=C(CCCc1nc(-c2ccccc2Cl)no1)NC1CCCC1` here?
Its Potency is inconclusive: 14.7 µM [inhibitor, single point].

With `CCOc1ccc(N2C(=O)CC(Sc3nc(CC(C)C)ccc3C#N)C2=O)cc1` (configuration not stated) as the compound, how does the Potency read?
Its Potency is inconclusive: 0.0828 µM [inhibitor, partial curve, poor fit].

With `Cc1cccc(NS(=O)(=O)c2ccc(C(=O)NCC(c3ccco3)N3CCCCC3)cc2)c1C` (configuration not stated) as the compound, how does the Potency read?
The Potency was inconclusive: 18.5 µM [inhibitor, single point].

For `Nc1c(C(=O)NCCc2ccccc2)nnn1Cc1ccc(Cl)cc1`, which Potency is on record?
The Potency was inconclusive: 16.5 µM [inhibitor, single point].

For `O=C(O)CCC(=O)N1N=C(c2cccs2)CC1c1cn(-c2ccccc2)nc1-c1ccccc1` (configuration not stated), which Potency is on record?
The Potency was inconclusive: 11.7 µM [inhibitor, single point].

For `COc1ccc(Cc2nc3c4c(ncn3n2)Oc2c(ccc3ccccc23)C4c2ccc(OC)c(OC)c2)cc1` (configuration not stated), which Potency is on record?
Its Potency is active: 1.85 µM.

Which “activity change, negative = inhibition” value does the source give for `CCCn1c(=O)c2[nH]c(-c3ccc(OCC(=O)Nc4ccc(C#N)cc4)cc3)nc2n(CCC)c1=O` here?
Its value is inactive: 49%.

For `CC(=O)Nc1ccc(OCCOc2ccc(/C=C3/C(=N)N4C=CSC4=NC3=O)cc2)cc1`, which Potency is on record?
The Potency was inconclusive: 10.4 µM [inhibitor, single point].

With `O=C(Nc1ccc(C(=O)O)cc1)Nc1cccc([N+](=O)[O-])c1` as the compound, how does the Potency read?
The Potency was inconclusive: 10.4 µM [inhibitor, partial curve, poor fit].

With `Cc1cc(-c2ccc(S(=O)(=O)N3CCCCC3)s2)on1` as the compound, how does the Potency read?
The Potency was inconclusive: 13.1 µM [inhibitor, single point].

Which Potency does the source give for `COc1cc(SC)ccc1C(=O)NCCCOC(C)C` here?
The Potency was inconclusive: 16.5 µM [inhibitor, single point].

With `COc1ccc(OC)c(-n2c(-c3cnccn3)n[nH]c2=S)c1` as the compound, how does the Potency read?
The Potency was inconclusive: 0.329 µM [inhibitor, full curve, poor fit].

Which Potency does the source give for `COc1ccc2c(c1)CC/C(=C\C=C\c1ccccc1OC)C2=O` here?
The Potency was inconclusive: 18.5 µM [inhibitor, single point].

For `Cc1cc(C)nc(SCCc2ccncc2)n1`, which Potency is on record?
Its Potency is inconclusive: 10.4 µM [inhibitor, single point].

With `CCN(c1ccccc1)S(=O)(=O)c1ccc(C(=O)Nc2nnc(COC)o2)cc1` as the compound, how does the Potency read?
The Potency was inconclusive: 9.28 µM [inhibitor, single point].

For `CC1CCN(C(=O)C2CCCN(S(=O)(=O)c3ccc4c(c3)CC(C)N4C(=O)C3CC3)C2)CC1` (configuration not stated), which Potency is on record?
Its Potency is inconclusive: 16.5 µM [inhibitor, single point].

For `CCN(CC)c1ccc(NC(=O)CNCc2ccccc2Cl)c(C)c1`, which Potency is on record?
Its Potency is inconclusive: 5.22 µM [inhibitor, partial curve].

For `Oc1ccc(/C=N/Nc2ccc(Cl)nn2)cc1O`, which Potency is on record?
Its Potency is inconclusive: 18.5 µM [inhibitor, single point].

For `COc1cccc(CNS(=O)(=O)c2cc3c(cc2C)n(C)c(=O)c(=O)n3C)c1`, which “activity change, negative = inhibition” value is on record?
Its value is inactive: 16.5%.

Which Potency does the source give for `Cc1ccc(NS(=O)(=O)c2ccc3[nH]c(=O)c(=O)[nH]c3c2)cc1Cl` here?
Its Potency is inconclusive: 0.0029 µM [inhibitor, full curve, poor fit].

With `O=C(CCCN1C(=O)c2ccccc2C1=O)Nc1c(C(=O)C2CC2)oc2ccccc12` as the compound, how does the Potency read?
The Potency was inconclusive: 18.5 µM [inhibitor, single point].

For `O=C(NCC1CC1)Nc1ccccc1`, which Potency is on record?
Its Potency is inconclusive: 0.0329 µM [inhibitor, full curve, poor fit].

For `COc1cccc(Nc2nc3ccc(C(=O)c4ccccc4)cc3n3cnnc23)c1`, which Potency is on record?
The Potency was inconclusive: 9.28 µM [inhibitor, single point].

For `COc1ccc(/C=N/N2CCN(c3ccc(Cl)cc3)CC2)cc1O`, which “activity change, negative = inhibition” value is on record?
The value was inactive: 125%.

With `Cn1c(/C(C#N)=C/c2ccc(O)cc2)nc2ccccc21` as the compound, how does the Potency read?
The Potency was active: 2.33 µM.

With `CC1C(=O)Nc2ccc(S(=O)(=O)NCc3ccc(Cl)cc3)cc2NC1=O` (configuration not stated) as the compound, how does the “activity change, negative = inhibition” value read?
The value was inactive: 2.78%.

Which “activity change, negative = inhibition” value does the source give for `CCCCNC(=O)CCC(=O)Nc1ccc2nc(N3CCN(C)CC3)cc(C)c2c1` here?
Its value is inactive: 3.52%.

With `Cc1occc1-c1nnc(SCC(=O)NC2CC2)n1C` as the compound, how does the Potency read?
The Potency was inconclusive: 18.5 µM [inhibitor, single point].

Which Potency does the source give for `COc1cccc(-n2nc(C(=O)N3CCN(Cc4ccccc4)CC3)c3ccccc3c2=O)c1` here?
Its Potency is active: 5.22 µM.

Which Potency does the source give for `CCN(CC)CCN(C(=O)Cn1nnc(-c2ccc(C)o2)n1)C(C(=O)NC(C)(C)C)c1cccs1` (configuration not stated) here?
Its Potency is inconclusive: 1.65 µM [inhibitor, partial curve, poor fit].
